# Measured values published in patent US10962528B2, “Blue fluorescent protein monomers and uses thereof” (WISYS TECHNOLOGY FOUNDATION, INC., priority 2015, dated 2021).
# B1: Wild-type SFP: Sandercyanin fluorescent protein from walleye Sander vitreus mucus, biliverdin-binding lipocalin tetramer; SEQ ID NO:1 (recombinant SEQ ID NO:31) (protein, listed as Sander vitreus)
# chain: MNAIQVISLTLLSVLAAKAMFIKPGRCPKPAVQEDFDAARYLGVWYDIQRLPNKFQKGECATATYSLSPGVGFSVFNRERLANGTIKSVIGSAIAEDPCEPAKLQFFHENAAPVPYWVLSTDYDNYALVYSCINLGASHAAYASIVSRQPTLPEETIKKLQGTMSSFGVGVDTLLTTNQDAAYCSAMAQ
# modifications: biliverdin chromophore
# Assay: Size-exclusion chromatography, oligomerization state
# Assay type: physicochemical
molecule,measurement,setting,value
B1,oligomeric state in solution without biliverdin,"apo form, in solution",monomer
same,oligomeric state in the presence of biliverdin,in the presence of BV,homotetramer
